Laboratory results: publication PMC11876601 (Molecular Systems Biology, 2025)

Experiments:
Assay in all cases: Drug combination viability screen (ATPlite, 72 h)
Assay type in all cases: cell-based, human
PANC-1 cells = system: PANC-1 cells
Protocol: (§1) Cell viability was assessed by measuring ATP levels to indicate metabolic activity.
(§2) Afterward, small amounts were transferred to 384-well intermediate plates (Greiner Bio-One GmbH, Germany). […] For drug combination screening, 1000 to 5000 cells were seeded into 384-well plates (CulturPlate™, Perkin Elmer, MA, USA) using a Multidrop™ Combi Reagent Dispenser (Thermo Scientific, MA, USA) in 50 µl medium per well 24 h prior to drug treatment (seeding densities see Appendix Table S1). […] The final DMSO concentration in each well was 0.2%. […] Eight wells per plate without library drug served as negative controls, and sixteen wells per plate containing 5 µM Staurosporine served as positive controls. Control plates not containing any drug were used to correct for incubation effects, and data quality was assessed by calculation of Z-prime of positive and negative controls according to1 Z-prime=1−3SDpos+3SDneg/[…] where SD is the standard deviation. […] Dose–response curves from the experimental and hypothetical data were compared, and shifts in AUC were used to describe combination effects (AUC∆ = AUChypothetical − AUCexperimental). […] Only combinations with R^2 > 0.8 in both conditions were considered in the synergy analysis.

PaTu-8988-T cells = system: PaTu-8988-T cells
Protocol: as §1, §2

Capan-1 cells = system: Capan-1 cells
Protocol: as §1, §2

AsPC-1 cells = system: AsPC-1 cells
Protocol: as §1, §2

MiaPaCa-2 cells = system: MiaPaCa-2 cells
Protocol: as §1, §2

[1] = system: HPDE (immortalized pancreatic duct cell line); conditions: combination with GEM; sentence removed from manuscript, quoted in peer review file
Protocol: as §1, §2

In the case of `C[C@@H]1COCCN1c1cc(-c2ccnn2C)c2ccnc(-c3ccn[nH]3)c2n1` [Elimusertib], the “AUC∆_GEM high” value (PANC-1 cells) is reported as 18.66%, the “AUC∆_GEM low” value (PANC-1 cells) is reported as 7.17% and the “AUC∆_sum” value (PANC-1 cells) is reported as 25.83%. For the same compound, the “AUC∆_sum_greater10” value (PANC-1 cells) was “TRUE”, the any_comb_AUC_lower80 (PANC-1 cells) was “TRUE” and the “AUC∆_GEM high” value (PaTu-8988-T cells) was 37.89%. For the same compound, the “AUC∆_GEM low” value (PaTu-8988-T cells) was 22.59%, the “AUC∆_sum” value (PaTu-8988-T cells) was 60.47% and the “AUC∆_sum_greater10” value (PaTu-8988-T cells) was “TRUE”. For the same compound, the any_comb_AUC_lower80 (PaTu-8988-T cells) was “TRUE”, the “AUC∆_GEM high” value (Capan-1 cells) was 16.93% and the “AUC∆_GEM low” value (Capan-1 cells) was 6.09%. The “AUC∆_sum” value (Capan-1 cells) was 23.02%, the “AUC∆_sum_greater10” value (Capan-1 cells) was “TRUE” and the any_comb_AUC_lower80 (Capan-1 cells) was “TRUE”. The “AUC∆_GEM high” value (AsPC-1 cells) was 12.17%, the “AUC∆_GEM low” value (AsPC-1 cells) was 11.34% and the “AUC∆_sum” value (AsPC-1 cells) was 23.51%. For the same compound, the “AUC∆_sum_greater10” value (AsPC-1 cells) was “TRUE”, the any_comb_AUC_lower80 (AsPC-1 cells) was “TRUE” and the “AUC∆_GEM high” value (MiaPaCa-2 cells) was 39.45%. The “AUC∆_GEM low” value (MiaPaCa-2 cells) was 5.93%, the “AUC∆_sum” value (MiaPaCa-2 cells) was 45.38% and the “AUC∆_sum_greater10” value (MiaPaCa-2 cells) was “TRUE”. The any_comb_AUC_lower80 (MiaPaCa-2 cells) was “TRUE” and the “ΣAUC∆” value [1] was 15%.
